Test [1] deals with Butyrophilin Subfamily 3 Member A3 (BTN3A3), endogenous (human (endogenous in 3AO and NIH:OVCAR-3)) (UniProt O00478). In words: co-IP; endogenous proteins in 3AO and NIH:OVCAR-3 cells; Pierce IP Lysis Buffer, primary antibody or control IgG, Protein A/G PLUS-Agarose beads, 4°C, Western blot.
Test [2] concerns the target 3 × Flag-BTN3A3 (Butyrophilin Subfamily 3 Member A3), expressed in 293T cells (UniProt O00478). Description: co-IP; exogenous: 3 × Flag-BTN3A3 and 3 × HA-FGF2 plasmids co-transfected in 293T cells; Pierce IP Lysis Buffer, Protein A/G PLUS-Agarose beads, 4°C, Western blot.

Sequences of proteins named here, by UniProt entry; tags and fusion partners are left off. A change or cut given only in a name is not applied to a line headed by its entry. Residues count along the entry.
UniProt O00478, residues 30-584: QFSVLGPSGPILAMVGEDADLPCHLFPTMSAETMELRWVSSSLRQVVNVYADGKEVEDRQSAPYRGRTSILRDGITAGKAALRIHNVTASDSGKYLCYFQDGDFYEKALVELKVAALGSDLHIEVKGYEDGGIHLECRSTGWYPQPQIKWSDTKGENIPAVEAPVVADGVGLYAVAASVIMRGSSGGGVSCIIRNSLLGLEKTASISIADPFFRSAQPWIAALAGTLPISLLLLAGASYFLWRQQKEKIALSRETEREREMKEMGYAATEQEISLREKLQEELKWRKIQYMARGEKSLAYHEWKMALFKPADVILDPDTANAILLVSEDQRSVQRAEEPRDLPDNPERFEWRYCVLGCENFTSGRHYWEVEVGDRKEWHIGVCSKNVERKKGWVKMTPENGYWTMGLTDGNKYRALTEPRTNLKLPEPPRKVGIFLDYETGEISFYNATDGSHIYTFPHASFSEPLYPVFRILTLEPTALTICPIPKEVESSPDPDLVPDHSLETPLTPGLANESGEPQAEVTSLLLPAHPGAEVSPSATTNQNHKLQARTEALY
UniProt P09038: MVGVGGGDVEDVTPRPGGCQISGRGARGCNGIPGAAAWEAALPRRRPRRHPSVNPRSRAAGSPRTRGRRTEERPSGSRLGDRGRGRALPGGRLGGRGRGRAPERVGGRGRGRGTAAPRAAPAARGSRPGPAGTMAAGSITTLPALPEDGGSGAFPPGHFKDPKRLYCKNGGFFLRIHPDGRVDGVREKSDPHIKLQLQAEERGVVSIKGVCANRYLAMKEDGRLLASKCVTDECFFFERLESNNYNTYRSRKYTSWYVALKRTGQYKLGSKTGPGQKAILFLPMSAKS

Results are given in words; binding and its absence hold for the method and conditions named. In cells and extracts the contact can be indirect. Binding can be weak; no strength is given.

As to “Fibroblast Growth Factor 2 (FGF2), endogenous (from UniProt P09038)”, the binding entry in test [1] was “binds”. Turning to “3 × HA-FGF2 (Fibroblast Growth Factor 2) (from UniProt P09038)”, the binding entry in test [2] is reported as “binds”.
